The name of at least one read-out is uncertain.
Tested on: albino guinea-pig eye
Test: Pruritogenic activity of autocoids: topical drop to the eye (conjunctiva), scratching episodes counted over 15 minutes
Type: in vivo
Details: 20 µl drop topically to one eye, n=12
Source text: A more complete appreciation of the invention may be obtained from the following Examples. As a means of providing an atraumatic experimental model of itching, the conjunctiva was used as a convenient tissue site. Pruritogenic agents may be administered to the conjunctiva without the need to traumatize the tissue by injection or scarification. The itch sensation is elicited peripherically by local, atraumatic application of the pruritogen. Of equal importance is the ability of this model to identify locally acting anti-pruritic agents without concerns regarding local tissue trauma or, in the case of systemically administered agents, sedation.
The pruritogenic activity of numerous and structurally diverse autocoids was examined as follows. A 20 µl drop of a solution of the particular autocoid under evaluation was topically administered to one albino guinea-pig eye, the contralateral eye received 20 µl of vehicle as a control. For PAF studies, the R=15 version of formula I was used and was taken up in 0.5% ultrapure bovine serum albumin. The guinea pig was then replaced in its cage and the number of scratching episodes was recorded over the 15 subsequent minute period. The retention of the experimental animal in familiar surroundings is an important factor in experimental design. Scratching, which is the typical mammalian behavioral response to the itch sensation, provides an indication of the intensity of the perceived itch sensation and can be quantified by recording the frequency at which itch-scratch episodes occur per unit time: 15 minutes in the case of these examples.

## CCCCCCCCCCCCCCCCOCC(COP(=O)([O-])OCC[N+](C)(C)C)OC(C)=O (stereo not drawn) [PAF, 1-O-alkyl-2-acetyl-sn-glycero-3-phosphocholine]
Dose 1 μg
  NO OF SCRATCH EPISODES (X̄ ± SEM): 6.42 ± 1.26
Dose 10 μg
  NO OF SCRATCH EPISODES (X̄ ± SEM): 10.17 ± 1.31
Dose 100 μg
  NO OF SCRATCH EPISODES (X̄ ± SEM): 13.46 ± 0.88
